Data reported in publication PMC8129138.
These are yes or no findings as the source states them, for the method shown. Binding seen in cells or lysates may run through a third protein. Some binding calls cover weakened binding; strength is not graded here. For some of these results: Where a sequence is shown, tags or fusion partners need not be part of it.

Amino acid sequences for entries named in this document (tags omitted). A change or cut given only in a name is not applied to a line headed by its entry.
UniProt Q9H1P3: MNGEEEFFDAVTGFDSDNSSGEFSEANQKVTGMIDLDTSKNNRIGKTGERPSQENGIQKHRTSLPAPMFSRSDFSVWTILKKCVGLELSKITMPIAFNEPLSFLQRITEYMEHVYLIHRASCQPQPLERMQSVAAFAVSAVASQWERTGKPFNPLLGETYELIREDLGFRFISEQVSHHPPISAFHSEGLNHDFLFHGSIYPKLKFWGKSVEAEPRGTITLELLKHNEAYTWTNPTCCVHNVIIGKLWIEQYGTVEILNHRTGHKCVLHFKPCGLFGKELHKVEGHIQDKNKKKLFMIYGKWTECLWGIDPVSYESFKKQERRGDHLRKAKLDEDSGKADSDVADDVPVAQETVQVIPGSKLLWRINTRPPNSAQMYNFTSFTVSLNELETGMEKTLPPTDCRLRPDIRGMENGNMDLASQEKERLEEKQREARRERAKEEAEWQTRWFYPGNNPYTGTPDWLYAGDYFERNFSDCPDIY
UniProt P35222: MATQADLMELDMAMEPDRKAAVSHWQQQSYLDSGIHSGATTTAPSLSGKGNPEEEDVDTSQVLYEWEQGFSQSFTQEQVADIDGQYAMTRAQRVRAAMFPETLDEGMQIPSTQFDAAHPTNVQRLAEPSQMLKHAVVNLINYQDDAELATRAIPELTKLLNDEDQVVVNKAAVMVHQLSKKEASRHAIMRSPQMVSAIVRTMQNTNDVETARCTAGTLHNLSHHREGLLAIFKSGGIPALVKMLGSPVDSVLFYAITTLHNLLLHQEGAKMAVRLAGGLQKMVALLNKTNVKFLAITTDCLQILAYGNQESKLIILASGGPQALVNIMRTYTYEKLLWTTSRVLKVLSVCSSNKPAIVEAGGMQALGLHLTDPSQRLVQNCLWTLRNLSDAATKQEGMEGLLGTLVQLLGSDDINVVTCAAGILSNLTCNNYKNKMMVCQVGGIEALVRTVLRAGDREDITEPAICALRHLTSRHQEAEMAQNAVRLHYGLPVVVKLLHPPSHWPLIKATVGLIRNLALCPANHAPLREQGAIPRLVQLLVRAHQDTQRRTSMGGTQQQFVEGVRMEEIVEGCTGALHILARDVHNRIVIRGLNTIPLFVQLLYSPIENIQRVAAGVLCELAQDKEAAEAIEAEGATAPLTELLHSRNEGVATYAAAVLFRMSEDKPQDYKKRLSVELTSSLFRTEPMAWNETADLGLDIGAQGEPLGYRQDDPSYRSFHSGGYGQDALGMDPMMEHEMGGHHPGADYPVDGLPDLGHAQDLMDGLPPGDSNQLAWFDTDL
UniProt Q02248: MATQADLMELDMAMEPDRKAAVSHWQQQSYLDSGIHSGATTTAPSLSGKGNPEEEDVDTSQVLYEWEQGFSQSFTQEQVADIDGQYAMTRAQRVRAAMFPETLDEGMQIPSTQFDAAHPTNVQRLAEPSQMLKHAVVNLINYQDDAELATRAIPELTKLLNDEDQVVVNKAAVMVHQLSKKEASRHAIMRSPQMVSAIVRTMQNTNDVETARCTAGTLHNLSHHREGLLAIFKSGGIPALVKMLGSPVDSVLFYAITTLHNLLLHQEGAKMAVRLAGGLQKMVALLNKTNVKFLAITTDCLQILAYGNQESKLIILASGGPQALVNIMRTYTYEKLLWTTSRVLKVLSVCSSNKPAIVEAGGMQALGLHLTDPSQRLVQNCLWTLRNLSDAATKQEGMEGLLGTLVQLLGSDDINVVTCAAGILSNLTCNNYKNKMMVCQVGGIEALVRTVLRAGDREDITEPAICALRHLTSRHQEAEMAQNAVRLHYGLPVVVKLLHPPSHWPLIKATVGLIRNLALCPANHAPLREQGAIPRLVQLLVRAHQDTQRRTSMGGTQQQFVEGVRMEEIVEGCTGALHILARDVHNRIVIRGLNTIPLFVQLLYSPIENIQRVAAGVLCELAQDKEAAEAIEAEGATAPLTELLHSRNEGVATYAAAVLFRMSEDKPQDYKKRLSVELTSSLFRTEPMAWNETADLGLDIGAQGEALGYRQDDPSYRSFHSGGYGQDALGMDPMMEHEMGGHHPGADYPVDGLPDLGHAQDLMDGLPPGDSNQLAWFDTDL

Tests used:
[1] = molecular target: FLAG-tagged OSBPL2 (oxysterol-binding protein-like 2) (UniProt Q9H1P3); test: co-IP; HEK293T cells co-transfected for 48 h with HA-tagged β-catenin or its truncated fractions and FLAG-tagged OSBPL2 or ORD; RIPA lysis buffer with 0.2 mM PMSF; overnight with anti-FLAG-tag M2 affinity gel at 4 °C; western blotting
[2] = molecular target: T1, FLAG-tagged OSBPL2 expressed from the FLAG-tagged Osbpl2 plasmid in 3T3-L1 preadipocytes (UniProt Q8BX94); test: co-IP; 3T3-L1 preadipocytes transfected with FLAG-tagged Osbpl2 plasmid for 48 h; FLAG-tagged OSBPL2 with endogenous β-catenin
T1 sequence: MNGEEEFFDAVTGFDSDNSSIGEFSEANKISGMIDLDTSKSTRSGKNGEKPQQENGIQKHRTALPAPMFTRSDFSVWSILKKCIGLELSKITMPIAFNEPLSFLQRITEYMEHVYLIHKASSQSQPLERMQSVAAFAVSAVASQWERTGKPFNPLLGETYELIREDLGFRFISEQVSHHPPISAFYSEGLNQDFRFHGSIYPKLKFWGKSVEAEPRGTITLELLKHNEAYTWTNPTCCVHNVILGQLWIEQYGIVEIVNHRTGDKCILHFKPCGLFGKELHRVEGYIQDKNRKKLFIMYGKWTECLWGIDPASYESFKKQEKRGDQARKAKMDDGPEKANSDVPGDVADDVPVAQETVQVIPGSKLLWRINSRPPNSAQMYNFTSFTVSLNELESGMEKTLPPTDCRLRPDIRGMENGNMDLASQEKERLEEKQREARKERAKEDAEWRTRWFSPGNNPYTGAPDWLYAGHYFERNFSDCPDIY

| Substance | binding [1] | binding [2] |
| --- | --- | --- |
| HA-tagged C-terminal fraction of β-catenin (aa 432–781) (from UniProt P35222 432-781) (domain or fragment) | binds |  |
| HA-tagged SRP fraction of β-catenin (aa 142–431) (from UniProt P35222 142-431) (domain or fragment) | binds |  |
| HA-tagged β-catenin (from UniProt P35222 1-781) | binds |  |
| endogenous β-catenin of 3T3-L1 preadipocytes (from UniProt Q02248 1-781) |  | binds |
